These are yes or no findings as the source states them, for the method shown. In cells and extracts the contact can be indirect. Some entries that bind do so weakly or less than the wild type. Where a sequence is shown, tags or fusion partners need not be part of it.

For assay [1], the target named is T1, GST fused to the Vav SH3 domain (GST-SH3v) (UniProt P15498).
T1 sequence (looked up): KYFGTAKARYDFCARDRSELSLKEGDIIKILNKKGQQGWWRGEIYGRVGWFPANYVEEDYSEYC
Nature of the assay: GST pull-down of in vitro translated HA-ESYT2, anti-HA blot; less than with the CARMA1 SH3 domain.

Assay [2] addresses T1, GST fused to the Vav SH3 domain (GST-SH3v). Nature of the assay: GST pull-down of in vitro translated HA-tagged E-Syt2.

B1: in vitro translated HA-tagged E-Syt2 (protein, not shown: small tags and cut ends)
chain: MTPPSRAEAGVRRSRVPSEGRWRGAEPPGISASTQPASAGRAARHCGAMSGARGEGPEAGAGGAGGRAAPENPGGVLSVELPGLLAQLARSFALLLPVYALGYLGLSFSWVLLALALLAWCRRSRGLKALRLCRALALLEDEERVVRLGVRACDLPAWVHFPDTERAEWLNKTVKHMWPFICQFIEKLFRETIEPAVRGANTHLSTFSFTKVDVGQQPLRINGVKVYTENVDKRQIILDLQISFVGNCEIDLEIKRYFCRAGVKSIQIHGTMRVILEPLIGDMPLVGALSIFFLRKPLLEINWTGLTNLLDVPGLNGLSDTIILDIISNYLVLPNRITVPLVSEVQIAQLRFPVPKGVLRIHFIEAQDLQGKDTYLKGLVKGKSDPYGIIRVGNQIFQSRVIKENLSPKWNEVYEALVYEHPGQELEIELFDEDPDKDDFLGSLMIDLIEVEKERLLDEWFTLDEVPKGKLHLRLEWLTLMPNASNLDKVLTDIKADKDQANDGLSSALLILYLDSARNLPSGKKISSNPNPVVQMSVGHKAQESKIRYKTNEPVWEENFTFFIHNPKRQDLEVEVRDEQHQCSLGNLKVPLSQLLTSEDMTVSQRFQLSNSGPNSTIKMKIALRVLHLEKRERPPDHQHSAQVKRPSVSKEGRKTSIKSHMSGSPGPGGSNTAPSTPVIGGSDKPGMEEKAQPPEAGPQGLHDLGRSSSSLLASPGHISVKEPTPSIASDISLPIATQELRQRLRQLENGTTLGQSPLGQIQLTIRHSSQRNKLIVVVHACRNLIAFSEDGSDPYVRMYLLPDKRRSGRRKTHVSKKTLNPVFDQSFDFSVSLPEVQRRTLDVAVKNSGGFLSKDKGLLGKVLVALASEELAKGWTQWYDLTEDGTRPQAMT
Turning to B1, the binding result in assay [1] and in assay [2] was “binds” each time.

Values taken from patent US20180066318A1 (INSTITUT PASTEUR, published 2018).
